Test results: the supplement of paper PMC4635364
Counter-ions that a name gives are not always drawn. The list shows a part of the results. This data set is noisy: repeats of one test often differ as much as different tests do.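 Cells: ReNCell VM human fetal ventral-midbrain neural progenitors, differentiated mitogen-free. Blinded raters compared doublecortin-stained (early neurons) or tyrosine hydroxylase-stained (dopaminergic neurons) images with untreated wells, where 0 means no change. After repeats and both raters were averaged, compounds scoring 2 or above became hits for retesting.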

Legend:
[1] = tested on: ReNCell VM; experiment: neuronal differentiation score (DCX+ cell fraction vs untreated, manual image score) (score (-3 to 3)); higher = more neuronal differentiation; details: 2 uM, 2 weeks
[2] = tested on: ReNCell VM; experiment: dopaminergic neuron differentiation score (TH+ cell fraction vs untreated, manual image score) (score (0 to 3)); higher = more TH+ dopaminergic neuron differentiation; details: 2 uM, 4 weeks, BDNF 10 ng/ml + GDNF 10 ng/ml

COc1ccccc1OCC(O)CN1CCN(CC(=O)Nc2c(C)cccc2C)CC1 (centres undefined) [Ranolazine]
neuronal differentiation score ([1]; library: Prestwick): inactive: 0 | dopaminergic neuron differentiation score ([2]; library: Prestwick): inactive: 0

Nc1ccc(S(=O)(=O)Nc2ccccn2)cc1 [Sulfapyridine]
neuronal differentiation score ([1]; library: Prestwick): inactive: 0 | dopaminergic neuron differentiation score ([2]; library: Prestwick): inactive: 0

C[C@]12C=CC(=O)C=C1CC[C@@H]1[C@@H]2C(=O)C[C@@]2(C)[C@H]1CC[C@]2(O)C(=O)CO
neuronal differentiation score ([1]; library: Spectrum): inactive: 0 | dopaminergic neuron differentiation score ([2]; library: Spectrum): inactive: 0

Oc1c(Cl)cc(Cl)cc1Sc1cc(Cl)cc(Cl)c1O
neuronal differentiation score ([1]; library: Spectrum): inactive: 0 | dopaminergic neuron differentiation score ([2]; library: Spectrum): inactive: 0

CCN(CCO)CCCC(C)Nc1ccnc2cc(Cl)ccc12 (centres undefined) [Hydroxychloroquine sulfate]
neuronal differentiation score ([1]; library: Prestwick): inactive: 0 | dopaminergic neuron differentiation score ([2]; library: Prestwick): inactive: 0

C=C1CC[C@H](O)C/C1=C/C=C1\CCC[C@]2(C)[C@@H]([C@H](C)/C=C/[C@H](C)C(C)C)CC[C@@H]12
neuronal differentiation score ([1]; library: Spectrum): inactive: 1 | dopaminergic neuron differentiation score ([2]; library: Spectrum): inactive: 0

C[C@]12CCC(=O)C=C1CC[C@@H]1[C@@H]2C(=O)C[C@@]2(C)[C@H]1CC[C@]2(O)C(=O)CO
neuronal differentiation score ([1]; library: Spectrum): inactive: 0 | dopaminergic neuron differentiation score ([2]; library: Spectrum): inactive: 0

CCN1CCN(C(=O)N[C@@H](C(=O)N[C@@H]2C(=O)N3[C@@H]2SC(C)(C)[C@@H]3C(=O)O)c2ccccc2)C(=O)C1=O
neuronal differentiation score ([1]; library: Spectrum): inactive: 0 | dopaminergic neuron differentiation score ([2]; library: Spectrum): inactive: 0

NC[C@H]1O[C@H](O[C@H]2[C@H](O[C@@H]3O[C@H](CO)[C@@H](O)[C@H]3O)[C@@H](O)[C@H](N)C[C@@H]2N)[C@H](N)[C@@H](O)[C@@H]1O
neuronal differentiation score ([1]; library: Spectrum): inactive: 0 | dopaminergic neuron differentiation score ([2]; library: Spectrum): inactive: 1

NC(=O)CNCCC(c1ccccc1)c1ccccc1 [N20C hydrochloride]
neuronal differentiation score ([1]; library: Tocriscreen): inactive: 0 | dopaminergic neuron differentiation score ([2]; library: Tocriscreen): inactive: 0

CC(=O)NO
neuronal differentiation score ([1]; library: Spectrum): inactive: 0 | dopaminergic neuron differentiation score ([2]; library: Spectrum): inactive: 0

COc1cccc(CCc2ccccc2OCC[C@@H]2C[C@@H](O)CN2C)c1
neuronal differentiation score ([1]; library: Tocriscreen): inactive: -1 | dopaminergic neuron differentiation score ([2]; library: Tocriscreen): inactive: 0

CC(C)(c1ccc(O)cc1)c1ccc(O)cc1
neuronal differentiation score ([1]; library: Spectrum): inactive: 0 | dopaminergic neuron differentiation score ([2]; library: Spectrum): inactive: 0

C[C@@H]1O[C@@H](O[C@H]2[C@H](Oc3cc(O)c4c(c3)O[C@H](c3ccc(O)cc3)CC4=O)O[C@H](CO)[C@@H](O)[C@@H]2O)[C@H](O)[C@H](O)[C@H]1O [Naringin hydrate]
neuronal differentiation score ([1]; library: Phytochemical): inactive: 0 | dopaminergic neuron differentiation score ([2]; library: Phytochemical): inactive: 0

COc1cc2c(cc1OC)C(c1c[nH]c3ccccc13)NCC2 (centres undefined)
neuronal differentiation score ([1]; library: Natural): inactive: 0 | dopaminergic neuron differentiation score ([2]; library: Natural): inactive: 0

CN1C(=O)CC(c2ccccc2)C1=O (centres undefined) [Phensuximide]
neuronal differentiation score ([1]; library: Prestwick): inactive: 0 | dopaminergic neuron differentiation score ([2]; library: Prestwick): inactive: 0

N=C(N)NC(=N)NCCc1ccccc1
neuronal differentiation score ([1]; library: Spectrum): inactive: 0 | dopaminergic neuron differentiation score ([2]; library: Spectrum): inactive: 0

CN(C(=O)c1c(O)c2ccccc2n(C)c1=O)c1ccccc1 [Linomide]
neuronal differentiation score ([1]; library: Tocriscreen): inactive: 0 | dopaminergic neuron differentiation score ([2]; library: Tocriscreen): inactive: 0

CO/N=C1\C[C@]2(C[C@@H]3C[C@@H](C/C=C(\C)C[C@@H](C)/C=C/C=C4\CO[C@@H]5[C@H](O)C(C)=C[C@@H](C(=O)O3)[C@]45O)O2)O[C@H](/C(C)=C/C(C)C)[C@H]1C
neuronal differentiation score ([1]; library: Spectrum): inactive: 0 | dopaminergic neuron differentiation score ([2]; library: Spectrum): inactive: 0

C1CCC(C(CC2CCCCN2)C2CCCCC2)CC1 (centres undefined) [Perhexiline maleate]
neuronal differentiation score ([1]; library: Prestwick): inactive: 0 | dopaminergic neuron differentiation score ([2]; library: Prestwick): inactive: 0

CCCSc1ccc2[nH]c(NC(=O)OC)nc2c1
neuronal differentiation score ([1]; library: Spectrum): inactive: 0 | dopaminergic neuron differentiation score ([2]; library: Spectrum): inactive: 0

COc1cc2c(cc1OC)C1C(=O)c3c(cc4c(c3O)C=CC(C)(C)O4)OC1CO2 (stereo not drawn) [beta-TOXICAROL]
neuronal differentiation score ([1]; library: Spectrum): inactive: 0 | dopaminergic neuron differentiation score ([2]; library: Spectrum): inactive: 0

NS(=O)(=O)c1cc(C(=O)O)c(NCc2ccco2)cc1Cl
neuronal differentiation score ([1]; library: Spectrum): inactive: 0 | dopaminergic neuron differentiation score ([2]; library: Spectrum): inactive: 0

N[C@@H](CCC(=O)N[C@@H](CS)C(=O)NCC(=O)O)C(=O)O
neuronal differentiation score ([1]; library: Spectrum): inactive: 0 | dopaminergic neuron differentiation score ([2]; library: Spectrum): inactive: 0

CCCCC1(C2CCCC2)Cc2cc(OCC(=O)O)c(Cl)c(Cl)c2C1=O (stereo in doubt) [R(+)-Butylindazone]
neuronal differentiation score ([1]; library: LOPAC): inactive: 0 | dopaminergic neuron differentiation score ([2]; library: LOPAC): inactive: 0

CCc1cc(-c2n[nH]c(C)c2-c2ccc3c(c2)OCCO3)c(O)cc1O
neuronal differentiation score ([1]; library: Tocriscreen): inactive: -1 | dopaminergic neuron differentiation score ([2]; library: Tocriscreen): inactive: 0

O=C(O)c1cc2cc(F)ccc2[nH]1
neuronal differentiation score ([1]; library: Spectrum): inactive: 0 | dopaminergic neuron differentiation score ([2]; library: Spectrum): inactive: 0
